Results are given in words; binding and its absence hold for the method and conditions named.
Molecular target: human PAC1R, C-terminally truncated after S417 (cryo-EM construct) (human) (UniProt P41586)
Experiment: cryo-EM structure

Protein sequences, listed by entry. Tags and fused reporters are not part of them. Residues count along the entry.
UniProt P41586, residues 21-417: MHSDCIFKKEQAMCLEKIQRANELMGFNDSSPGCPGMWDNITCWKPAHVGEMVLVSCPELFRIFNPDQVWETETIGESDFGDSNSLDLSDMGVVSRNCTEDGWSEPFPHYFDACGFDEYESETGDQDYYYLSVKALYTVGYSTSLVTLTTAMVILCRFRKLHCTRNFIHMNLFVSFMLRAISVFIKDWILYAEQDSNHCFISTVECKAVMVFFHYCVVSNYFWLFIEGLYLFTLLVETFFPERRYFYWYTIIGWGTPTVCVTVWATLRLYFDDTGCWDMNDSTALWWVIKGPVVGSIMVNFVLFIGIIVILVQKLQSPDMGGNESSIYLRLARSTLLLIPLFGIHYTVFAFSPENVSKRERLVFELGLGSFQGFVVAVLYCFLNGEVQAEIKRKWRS

“human PAC1R, C-terminally truncated after S417 (cryo-EM construct) (from UniProt P41586 21-417) (receptor)” was tested, and the binding was “no binding”.

— paper doi:10.1101/2019.12.23.887737
